Experimental data: patent publication US6361968
Substitutions are numbered along the chain they refer to. No constants are given. Whether binding was seen depends on the method and setting. Some binding calls cover weakened binding; strength is not graded here.

B1: 3heptad-F (cap, a d) (designed binder)
chain: ASMTGGQQMGRDPGGGLARNNIALRKSADKLKQRNVELEQEVLELESRNDRLRKEVEQLERELDTLRGIFRQLPESSLVKAMGNCA
B2: 3heptad-F (cap, b d) (designed binder)
chain: B1 chain with I22E, A23E, L24V, A28R, D29E, K30E, L31A, V36A
B3: 3heptad-F (cap, e g) (designed binder)
chain: B1 chain with N20E, L24V, R25E, S27E, A28R, L31A, K32E, R34E
B4: 3heptad-F (cap) (designed binder)
chain: B1 chain with L24V, A28R, L31A
B5: 3heptad-F (designed binder)
chain: B1 chain with N20E, I22E, A23E, R25E, S27E, D29E, K30E, K32E, R34E, V36A
B6: 4heptad-F (designed binder)
chain: ASMTGGQQMGRDPGGGLEQRAEELARENEELEKEAEELEQENAELEQEVLELESRNDRLRKEVEQLERELDTLRGIFRQLPESSLVKAMGNCA
B7: 0heptad-F (F zipper with the basic region deleted) (designed binder)
chain: ASMTGGQQMGRDPGGGTQQEVLELESRNDRLRKEVEQLERELDTLRGIFRQLPESSLVKAMGNCA
B8: 1heptad-F (designed binder)
chain: ASMTGGQQMGRDPGGGLEQENAELEQEVLELESRNDRLRKEVEQLERELDTLRGIFRQLPESSLVKAMGNCA
B9: 2heptad-F (designed binder)
chain: ASMTGGQQMGRDPGGGLEKEAEELEQENAELEQEVLELESRNDRLRKEVEQLERELDTLRGIFRQLPESSLVKAMGNCA

Target: C/EBP bZIP domain (GCN4-C/EBP chimeric protein) (C/EBP: rat liver; GCN4: yeast)
Experiment: heterodimer stability of four mutant proteins

binding, binds:
B1, B2, B3, B4

Target: C/EBP bZIP domain (GCN4-C/EBP chimeric protein) (C/EBP: rat liver; GCN4: yeast)
Experiment: sedimentation equilibrium, equimolar mixture

binding, binds:
B5

Target: C/EBP bZIP domain (GCN4-C/EBP chimeric protein) (C/EBP: rat liver; GCN4: yeast)
Experiment: CD thermal melting curves at 222 nm (FIG. 13B)

binding, binds:
B6, B5, B7, B8, B9

Target: C/EBP bZIP domain (GCN4-C/EBP chimeric protein) (C/EBP: rat liver; GCN4: yeast)
Experiment: CD thermal melts

binding, binds:
B6, B5, B7, B8, B9

Target: C/EBP bZIP domain (GCN4-C/EBP chimeric protein) (C/EBP: rat liver; GCN4: yeast)
Experiment: summary of thermal stability and competition assays

binding, binds:
B5
